Laboratory results: PubChem BioAssay AID1259327 (Drosophila RNAi Screening Center, 2017)

Screen: 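Knock-downs altering cellular ATP with no metal added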
System: Drosophila S2R+ cells
Knock-down reagent: long dsRNA against Drosophila genes
Duration: 5 days (water added on day 4, read one day later)
Conditions: water added as vehicle, no metal, one day before read-out
Measurement: 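Luciferase ATP signal per well, normalised to plate mean, duplicate average converted to z-score across plates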
Reading the numbers: ATP z-score: higher = more total ATP than typical wells; ATP luminescence: higher = more total ATP
Active means: 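a hit is any knock-down whose absolute ATP z-score is greater than 1.5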
Calls: active = hit: ATP up or down; inactive = no clear ATP change
The whole screen tested about 3,100 reagents; shown is a part drawn at random. In the full data, 378 (12%) were called active. 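Hits include both directions; z-score sign shows ATP rise or fall; raw luminescence values are not plate-normalised.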 Entries without a mark were called inactive. Names joined by + are all predicted targets of the reagent. The record does not give: the amount of reagent.

gene | dsRNA | ATP z-score, duplicate mean | ATP luminescence, replicate 1 (RLU) | ATP luminescence, replicate 2 (RLU)
CG6282 | DRSC29524 | -0.541 | 7.84e5 | 7.34e5
CG45049 | DRSC16163 | 0.199 | 3.03e5 | 7.98e5
CG45049 | DRSC23175 | 0.564 | 6.94e5 | 5.60e5
CG8028 | DRSC20075 | 0.134 | 7.30e5 | 7.86e5
fra | DRSC07621 | 0.0491 | 6.59e5 | 5.89e5
kar | DRSC14496 | 1.05 | 8.26e5 | 8.02e5
kar | DRSC39488 | 1.19 | 6.15e5 | 4.53e5
CG10337 | DRSC02038 | 0.195 | 7.47e5 | 7.46e5
CG10337 | DRSC39603 | 1.1 | 4.94e5 | 5.87e5
CG13801 | DRSC08335 | -0.924 | 6.04e5 | 4.67e5
CG13978 | DRSC14720 | -1.59 (active) | 5.34e5 | 6.63e5
bbc | DRSC22309 | 0.496 | 7.68e5 | 1.06e6
mAChR-B | DRSC16345 | -2.27 (active) | 2.13e5 | 4.75e5
mAChR-B | DRSC26738 | 0.41 | 1.07e6 | 9.61e5
Tl | DRSC16885 | 0.0547 | 7.36e5 | 6.87e5
Tl | DRSC39497 | 2.22 (active) | 5.47e5 | 6.49e5
caps | DRSC11333 | -0.0994 | 8.84e5 | 8.82e5
caps | DRSC22224 | -0.951 | 6.83e5 | 7.82e5
Sdr | DRSC15517 | 0.34 | 7.99e5 | 6.84e5
Sdr | DRSC36929 | -0.0219 | 5.61e5 | 5.94e5
Sdr | DRSC36930 | -0.233 | 5.53e5 | 5.67e5
Ten-a | DRSC19864 | 0.263 | 7.78e5 | 7.64e5
Ten-a | DRSC20290 | -0.665 | 5.95e5 | 1.03e6
CG9747 | DRSC23910 | -0.954 | 6.77e5 | 7.86e5
CG9747 | DRSC39676 | -1.79 (active) | 3.69e5 | 3.17e5
Octbeta1R | DRSC16134 | -0.321 | 2.68e5 | 7.69e5
Octbeta1R | DRSC30030 | -0.246 | 6.12e5 | 5.05e5
COX6AL2 + Ir75d | DRSC10081 | -0.629 | 8.46e5 | 7.82e5
COX6AL2 + Ir75d | DRSC39747 | 1.44 | 6.18e5 | 5.06e5
CG42269 | DRSC10672 | 0.368 | 9.49e5 | 9.39e5
CG42269 | DRSC24477 | 0.253 | 9.39e5 | 8.24e5
CG15814 | DRSC19730 | 0.864 | 8.62e5 | 7.30e5
CG15814 | DRSC39869 | -2.99 (active) | 3.22e5 | 3.37e5
CG12974 | DRSC11684 | 0.238 | 1.02e6 | 8.37e5
CG12974 | DRSC39561 | -1.04 | 3.79e5 | 4.10e5
CrzR | DRSC09781 | -0.201 | 9.14e5 | 8.27e5
CrzR | DRSC09782 | -0.567 | 6.54e5 | 7.10e5
CG8468 | DRSC07190 | -1.25 | 5.76e5 | 4.37e5
CG8468 | DRSC26347 | 0.178 | 8.79e5 | 8.65e5
PlexA | DRSC17220 | 0.402 | 7.35e5 | 7.59e5
CG6978 | DRSC18409 | 0.681 | 7.50e5 | 7.81e5
CG6978 | DRSC39567 | 1.15 | 5.71e5 | 5.14e5
bdg | DRSC07136 | 0.0404 | 7.10e5 | 7.61e5
CCHa1-R | DRSC06456 | 0.163 | 7.19e5 | 8.03e5
CCHa1-R | DRSC06715 | 0.4 | 6.14e5 | 6.98e5
otk2 | DRSC07303 | -0.0623 | 5.48e5 | 6.80e5
DopEcR | DRSC08529 | 0.113 | 6.87e5 | 8.01e5
CG14440 | DRSC23008 | -0.0717 | 5.84e5 | 5.63e5
CG14440 | DRSC25806 | 0.267 | 9.27e5 | 8.39e5
CG7573 | DRSC10884 | -0.327 | 8.55e5 | 8.51e5
CG16736 | DRSC15145 | -0.18 | 2.83e5 | 7.63e5
nAChRalpha1 | DRSC13672 | -0.513 | 8.22e5 | 8.35e5
nAChRalpha1 | DRSC17008 | 1.83 (active) | 3.99e5 | 9.16e5

Next part, starting with the last 4 of the part before.
gene | dsRNA | ATP z-score, duplicate mean | ATP luminescence, replicate 1 (RLU) | ATP luminescence, replicate 2 (RLU)
CG7573 | DRSC10884 | -0.327 | 8.55e5 | 8.51e5
CG16736 | DRSC15145 | -0.18 | 2.83e5 | 7.63e5
nAChRalpha1 | DRSC13672 | -0.513 | 8.22e5 | 8.35e5
nAChRalpha1 | DRSC17008 | 1.83 (active) | 3.99e5 | 9.16e5
ZnT41F | DRSC04850 | -0.129 | 6.74e5 | 7.61e5
CG15211 | DRSC19657 | -1.51 (active) | 4.25e5 | 7.25e5
CG15211 | DRSC39768 | 0.663 | 5.23e5 | 5.28e5
CG6006 | DRSC13137 | 0.662 | 3.19e5 | 8.60e5
CG6006 | DRSC15946 | 0.423 | 7.78e5 | 7.21e5
PIG-G | DRSC06823 | 1.46 | 9.58e5 | 8.14e5
CG33282 | DRSC00422 | -0.398 | 6.86e5 | 6.44e5
CG33282 | DRSC39731 | -1.4 | 3.58e5 | 3.82e5
CG32053 | DRSC10683 | -2.48 (active) | 4.58e5 | 4.74e5
Vha16-2 | DRSC10873 | 0.2 | 9.33e5 | 9.11e5
Vha16-2 | DRSC25504 | 0.44 | 9.06e5 | 9.04e5
CG32301 | DRSC08613 | 1.12 | 7.27e5 | 7.16e5
CG32301 | DRSC39589 | -1.03 | 4.23e5 | 3.66e5
Orct | DRSC16777 | 0.837 | 8.02e5 | 7.82e5
Orct | DRSC25574 | -0.11 | 7.04e5 | 9.70e5
Gr22e | DRSC20912 | 0.292 | 8.05e5 | 7.10e5
cue | DRSC08248 | 0.561 | 7.74e5 | 8.08e5
cue | DRSC39507 | 0.0796 | 5.05e5 | 4.14e5
IA-2 | DRSC00652 | 0.469 | 5.28e5 | 4.94e5
IA-2 | DRSC24588 | 0.105 | 9.17e5 | 8.09e5
IA-2 | DRSC36830 | 0.596 | 5.30e5 | 7.32e5
IA-2 | DRSC36831 | 1.07 | 6.25e5 | 7.16e5
TyrRII | DRSC25254 | -0.434 | 8.20e5 | 7.26e5
Esp | DRSC16664 | -1.46 | 2.18e5 | 6.44e5
Or30a | DRSC03385 | -0.371 | 6.91e5 | 6.83e5
Or30a | DRSC39556 | -0.104 | 4.54e5 | 4.62e5
Aplip1 | DRSC21587 | 0.609 | 6.32e5 | 6.30e5
Aplip1 | DRSC26312 | 0.818 | 9.03e5 | 1.00e6
ORMDL | DRSC27778 | 1.42 | 8.69e5 | 8.87e5
Or47b | DRSC07492 | -0.427 | 5.01e5 | 6.61e5
Or47b | DRSC39664 | 0.333 | 5.02e5 | 4.73e5
ppk6 | DRSC06062 | 0.0108 | 5.25e5 | 7.17e5
ppk6 | DRSC39881 | -1.69 (active) | 3.55e5 | 5.35e5
Spase12 + CG2006 | DRSC14316 | 0.631 | 7.42e5 | 7.75e5
